Source: patent US9913828B2, “Benzothiazolone compound” (Novartis AG, priority 2011, dated 2018)

What was measured:
[1] = tested on: isolated rabbit sino-atrial nodes; experiment: Sino-atrial node beating rate in isolated rabbit right atrium
[2] = tested on: isolated Langendorff perfused rabbit hearts; experiment: Automaticity in isolated Langendorff perfused rabbit hearts; settings: isolated rabbit heart

## COc1ccc(CC(C)NCC(O)c2ccc(O)c(NC=O)c2)cc1 (centres unmarked) [Formoterol, reference compound]
[1]
  Sino-Atrial node beating rate, maximum increase (n = 6): +45%
[2]
  Automaticity, maximum increase (n = 3): +46%
